From patent publication US20070142306A1, “Strontium-based complexes, pharmaceutical compositions and dietetic products” (MEDESIS PHARMA SA, priority 2003, published 2007) come the findings set out here.

A short description of the series: Assay of calcium in femoral bones. It counts as in vivo, rat. Particulars: femoral bone, 68.2 mg/kg/d strontium metal, rectal, 21 days.

Several values for one entry are separate records, joined by “and”; a condition that tells them apart may be missing. Equal entries are not always repeated.

In the case of `[Cl-].[Cl-].[Sr+2]` [Strontium chloride, strontium chloride], the “Ca concentration, Mean” value (group mean) is reported as 70.606 mg/g. The Ca concentration (individual rats, 68.2 mg/kg/day) is 77.882 mg/g and 79.211 mg/g and 72.946 mg/g and 57.229 mg/g and 64.538 mg/g and 71.630 mg/g and 70.192 mg/g and 71.221 mg/g.
